# Data reported in patent US8217085B2 (priority 2009, dated 2012).
# Where “and” joins values, the source holds several entries; their conditions need not be identical. Identical values can stand only once. Like-named read-outs stand apart in the source and are kept apart here. Further values from the same series stand in other lists.
# Tested on: ATCC strain 43300 Staphylococcus aureus
# [1] = 5% MSM, 12 μg/ml oxacillin, 96 hours
# [2] = 5% MSM, 12 μg/ml oxacillin, 120 hours
# [3] = 5% MSM, 30 μg/ml oxacillin, 96 hours
# [4] = 5% MSM, 30 μg/ml oxacillin, 120 hours
# [5] = 5% MSM, 60 μg/ml oxacillin, 72 hours
# [6] = 5% MSM, 60 μg/ml oxacillin, 96 hours
# [7] = 5% MSM, 60 μg/ml oxacillin, 120 hours
# [8] = 6% MSM, 12 μg/ml oxacillin, 96 hours
# [9] = 6% MSM, 12 μg/ml oxacillin, 120 hours
# [10] = 6% MSM, 30 μg/ml oxacillin, 96 hours
# [11] = 6% MSM, 30 μg/ml oxacillin, 120 hours
# [12] = 6% MSM, 60 μg/ml oxacillin, 72 hours
# [13] = 6% MSM, 60 μg/ml oxacillin, 96 hours
# [14] = 6% MSM, 60 μg/ml oxacillin, 120 hours
# [15] = 7% MSM, 12 μg/ml oxacillin, 96 hours
# [16] = 7% MSM, 12 μg/ml oxacillin, 120 hours
# [17] = 7% MSM, 30 μg/ml oxacillin, 96 hours
# [18] = 7% MSM, 30 μg/ml oxacillin, 120 hours
# [19] = 7% MSM, 60 μg/ml oxacillin, 72 hours
# [20] = 7% MSM, 60 μg/ml oxacillin, 96 hours
# [21] = 7% MSM, 60 μg/ml oxacillin, 120 hours
# [22] = 8% MSM, 12 μg/ml oxacillin, 96 hours
# [23] = 8% MSM, 12 μg/ml oxacillin, 120 hours
# [24] = 8% MSM, 30 μg/ml oxacillin, 96 hours
# [25] = 8% MSM, 30 μg/ml oxacillin, 120 hours
# [26] = 8% MSM, 60 μg/ml oxacillin, 72 hours
# [27] = 8% MSM, 60 μg/ml oxacillin, 96 hours
# [28] = 8% MSM, 60 μg/ml oxacillin, 120 hours
# [29] = 9% MSM, 12 μg/ml oxacillin, 96 hours
# [30] = 9% MSM, 12 μg/ml oxacillin, 120 hours
# [31] = 9% MSM, 30 μg/ml oxacillin, 96 hours
# [32] = 9% MSM, 30 μg/ml oxacillin, 120 hours
# [33] = 9% MSM, 60 μg/ml oxacillin, 72 hours
# [34] = 9% MSM, 60 μg/ml oxacillin, 96 hours
# [35] = 9% MSM, 60 μg/ml oxacillin, 120 hours
# [36] = 10% MSM, 12 μg/ml oxacillin, 96 hours
# [37] = 10% MSM, 12 μg/ml oxacillin, 120 hours
# [38] = 10% MSM, 30 μg/ml oxacillin, 96 hours
compound,measurement,setting,value
"CS(C)(=O)=O [MSM, methylsulfonylmethane]",survival,"5% MSM, 12 μg/ml oxacillin, 48 hours",4.5 × 10^3 cfu/ml and 4.0 × 10^3 cfu/ml and 4.2 × 10^3 cfu/ml
same,survival,"5% MSM, 12 μg/ml oxacillin, 72 hours",>3.3 × 10^5 cfu/ml
same,Average Log,[1],5.5 Log
same,survival,[1],>3.3 × 10^5 cfu/ml
same,Average Log,[2],5.5 Log
same,survival,[2],>3.3 × 10^5 cfu/ml
same,survival,"5% MSM, 30 μg/ml oxacillin, 48 hours",5.8 × 10^3 cfu/ml and 6.0 × 10^3 cfu/ml and 5.9 × 10^3 cfu/ml
same,survival,"5% MSM, 30 μg/ml oxacillin, 72 hours",>3.3 × 10^5 cfu/ml
same,Average Log,[3],5.5 Log
same,survival,[3],>3.3 × 10^5 cfu/ml
same,Average Log,[4],5.5 Log
same,survival,[4],>3.3 × 10^5 cfu/ml
same,survival,"5% MSM, 60 μg/ml oxacillin, 48 hours",3.0 × 10^3 cfu/ml and 2.7 × 10^3 cfu/ml and 3.3 × 10^3 cfu/ml
same,Average Log,[5],5.5 Log
same,survival,[5],>3.3 × 10^5 cfu/ml
same,Average Log,[6],5.5 Log
same,survival,[6],>3.3 × 10^5 cfu/ml
same,Average Log,[7],5.5 Log
same,survival,[7],>3.3 × 10^5 cfu/ml
same,survival,"6% MSM, 12 μg/ml oxacillin, 48 hours",1.7 × 10^3 cfu/ml and 1.4 × 10^3 cfu/ml
same,survival,"6% MSM, 12 μg/ml oxacillin, 72 hours",>3.3 × 10^5 cfu/ml
same,Average Log,[8],5.5 Log
same,survival,[8],>3.3 × 10^5 cfu/ml
same,Average Log,[9],5.5 Log
same,survival,[9],>3.3 × 10^5 cfu/ml
same,survival,"6% MSM, 30 μg/ml oxacillin, 48 hours",5.5 × 10^3 cfu/ml and 5.9 × 10^3 cfu/ml
same,survival,"6% MSM, 30 μg/ml oxacillin, 72 hours",>3.3 × 10^5 cfu/ml
same,Average Log,[10],5.5 Log
same,survival,[10],>3.3 × 10^5 cfu/ml
same,Average Log,[11],5.5 Log
same,survival,[11],>3.3 × 10^5 cfu/ml
same,survival,"6% MSM, 60 μg/ml oxacillin, 48 hours",6.0 × 10^1 cfu/ml and 5.0 × 10^1 cfu/ml
same,Average Log,[12],2.8 Log
same,survival,[12],6.5 × 10^2 cfu/ml and 6.4 × 10^2 cfu/ml and 6.1 × 10^2 cfu/ml
same,Average Log,[13],3.6 Log
same,survival,[13],4.4 × 10^3 cfu/ml and 4.5 × 10^3 cfu/ml
same,Average Log,[14],4.5 Log
same,survival,[14],3.7 × 10^4 cfu/ml and 3.4 × 10^4 cfu/ml and 2.4 × 10^4 cfu/ml
same,survival,"7% MSM, 12 μg/ml oxacillin, 48 hours",9.0 × 10^3 cfu/ml and 8.9 × 10^3 cfu/ml and 8.5 × 10^3 cfu/ml
same,survival,"7% MSM, 12 μg/ml oxacillin, 72 hours",>3.3 × 10^5 cfu/ml
same,Average Log,[15],5.5 Log
same,survival,[15],>3.3 × 10^5 cfu/ml
same,Average Log,[16],5.5 Log
same,survival,[16],>3.3 × 10^5 cfu/ml
same,survival,"7% MSM, 30 μg/ml oxacillin, 48 hours",2.0 × 10^2 cfu/ml and 2.1 × 10^2 cfu/ml and 2.2 × 10^2 cfu/ml
same,survival,"7% MSM, 30 μg/ml oxacillin, 72 hours",3.6 × 10^4 cfu/ml and 3.2 × 10^4 cfu/ml
same,Average Log,[17],5.5 Log
same,survival,[17],>3.3 × 10^5 cfu/ml
same,Average Log,[18],5.5 Log
same,survival,[18],>3.3 × 10^5 cfu/ml
same,survival,"7% MSM, 60 μg/ml oxacillin, 48 hours",1.0 × 10^4 cfu/ml and 1.1 × 10^4 cfu/ml
same,Average Log,[19],5.5 Log
same,survival,[19],>3.3 × 10^5 cfu/ml
same,Average Log,[20],5.5 Log
same,survival,[20],>3.3 × 10^5 cfu/ml
same,Average Log,[21],5.5 Log
same,survival,[21],>3.3 × 10^5 cfu/ml
same,survival,"8% MSM, 12 μg/ml oxacillin, 48 hours",4.9 × 10^3 cfu/ml and 5.4 × 10^3 cfu/ml
same,survival,"8% MSM, 12 μg/ml oxacillin, 72 hours",>3.3 × 10^5 cfu/ml
same,Average Log,[22],5.5 Log
same,survival,[22],>3.3 × 10^5 cfu/ml
same,Average Log,[23],5.5 Log
same,survival,[23],>3.3 × 10^5 cfu/ml
same,survival,"8% MSM, 30 μg/ml oxacillin, 48 hours",1.23 × 10^3 cfu/ml and 1.24 × 10^3 cfu/ml and 1.20 × 10^3 cfu/ml
same,survival,"8% MSM, 30 μg/ml oxacillin, 72 hours",>3.3 × 10^5 cfu/ml
same,Average Log,[24],5.5 Log
same,survival,[24],>3.3 × 10^5 cfu/ml
same,Average Log,[25],5.5 Log
same,survival,[25],>3.3 × 10^5 cfu/ml
same,survival,"8% MSM, 60 μg/ml oxacillin, 48 hours",7.5 × 10^2 cfu/ml and 7.3 × 10^2 cfu/ml and 7.0 × 10^2 cfu/ml
same,Average Log,[26],5.5 Log
same,survival,[26],>3.3 × 10^5 cfu/ml
same,Average Log,[27],5.5 Log
same,survival,[27],>3.3 × 10^5 cfu/ml
same,Average Log,[28],5.5 Log
same,survival,[28],>3.3 × 10^5 cfu/ml
same,survival,"9% MSM, 12 μg/ml oxacillin, 48 hours",2.4 × 10^3 cfu/ml and 2.5 × 10^3 cfu/ml and 2.3 × 10^3 cfu/ml
same,survival,"9% MSM, 12 μg/ml oxacillin, 72 hours",4.7 × 10^4 cfu/ml and 4.2 × 10^4 cfu/ml and 4.5 × 10^4 cfu/ml
same,Average Log,[29],5.5 Log
same,survival,[29],>3.3 × 10^5 cfu/ml
same,Average Log,[30],5.5 Log
same,survival,[30],>3.3 × 10^5 cfu/ml
same,survival,"9% MSM, 30 μg/ml oxacillin, 48 hours",2.8 × 10^2 cfu/ml and 2.6 × 10^2 cfu/ml and 2.2 × 10^2 cfu/ml
same,survival,"9% MSM, 30 μg/ml oxacillin, 72 hours",8.8 × 10^2 cfu/ml and 8.1 × 10^2 cfu/ml and 8.5 × 10^2 cfu/ml
same,Average Log,[31],4.0 Log
same,survival,[31],1.0 × 10^4 cfu/ml and 1.02 × 10^4 cfu/ml and 1.01 × 10^4 cfu/ml
same,Average Log,[32],5.5 Log
same,survival,[32],>3.3 × 10^5 cfu/ml
same,survival,"9% MSM, 60 μg/ml oxacillin, 48 hours",1.8 × 10^2 cfu/ml and 1.7 × 10^2 cfu/ml and 1.5 × 10^2 cfu/ml
same,Average Log,[33],2.5 Log
same,survival,[33],3.3 × 10^3 cfu/ml and 3.2 × 10^3 cfu/ml
same,Average Log,[34],5.5 Log
same,survival,[34],>3.3 × 10^5 cfu/ml
same,Average Log,[35],5.5 Log
same,survival,[35],>3.3 × 10^5 cfu/ml
same,survival,"10% MSM, 12 μg/ml oxacillin, 48 hours",5.4 × 10^2 cfu/ml
same,survival,"10% MSM, 12 μg/ml oxacillin, 72 hours",1.2 × 10^4 cfu/ml and 1.1 × 10^4 cfu/ml and 1.0 × 10^4 cfu/ml
same,Average Log,[36],5.5 Log
same,survival,[36],>3.3 × 10^5 cfu/ml
same,Average Log,[37],5.5 Log
same,survival,[37],>3.3 × 10^5 cfu/ml
same,survival,"10% MSM, 30 μg/ml oxacillin, 48 hours",4.3 × 10^2 cfu/ml and 4.0 × 10^2 cfu/ml
same,survival,"10% MSM, 30 μg/ml oxacillin, 72 hours",8.9 × 10^3 cfu/ml and 9.0 × 10^3 cfu/ml and 8.5 × 10^3 cfu/ml
same,Average Log,[38],5.5 Log
same,survival,[38],>3.3 × 10^5 cfu/ml
same,Average Log,"10% MSM, 30 μg/ml oxacillin, 120 hours",5.5 Log
